Literature values, collected in patent publication US7955620B2, “Stable oral composition” (Sun Pharmaceutical Industries Limited, priority 2003, dated 2011).

Conditions: 75% RH and 40° C., alone or in combination with various excipients

## Clc1ccc2c(c1)CCc1cccnc1C2=C1CCNCC1 [Desloratadine, 8-chloro-6,11-dihydro-11-(4-piperidylidene)-5H-benzo[5,6]-cyclohepta[1,2-b]pyridine]
  Discoloration on storage: discolor
